According to the supplement of paper PMC3334620:
Over roughly 33,000 sequences, “E-score (-0.5 to 0.5)” has its median near -0.015; the highest 2% begin near 0.3. The list shows a part of the results.

target: T1, Abf1 (UniProt P14164); experiment: PBM E-score (8-mer binding enrichment) (E-score (-0.5 to 0.5)); higher = stronger / more preferred TF binding; details: protein concentration: 200 nM; construct: GST-full length
T1 sequence: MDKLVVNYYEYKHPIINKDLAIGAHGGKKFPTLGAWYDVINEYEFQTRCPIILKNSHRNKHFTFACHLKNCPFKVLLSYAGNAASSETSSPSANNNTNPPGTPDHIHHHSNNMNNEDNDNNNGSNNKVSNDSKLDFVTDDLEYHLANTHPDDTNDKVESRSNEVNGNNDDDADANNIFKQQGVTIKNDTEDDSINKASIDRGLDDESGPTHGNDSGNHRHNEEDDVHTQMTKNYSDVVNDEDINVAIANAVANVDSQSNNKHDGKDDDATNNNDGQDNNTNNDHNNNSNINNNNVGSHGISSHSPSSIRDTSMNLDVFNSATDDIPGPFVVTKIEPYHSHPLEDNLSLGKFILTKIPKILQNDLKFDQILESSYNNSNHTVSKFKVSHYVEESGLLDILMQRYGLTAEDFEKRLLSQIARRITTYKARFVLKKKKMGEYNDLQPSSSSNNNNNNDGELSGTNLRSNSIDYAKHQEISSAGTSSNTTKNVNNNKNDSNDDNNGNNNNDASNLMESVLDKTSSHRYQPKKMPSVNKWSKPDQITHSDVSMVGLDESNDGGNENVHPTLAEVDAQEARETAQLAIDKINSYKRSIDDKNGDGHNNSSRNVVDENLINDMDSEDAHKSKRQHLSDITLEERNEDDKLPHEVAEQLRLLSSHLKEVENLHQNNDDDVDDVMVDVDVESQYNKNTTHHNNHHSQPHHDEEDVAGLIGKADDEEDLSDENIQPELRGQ
In short: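 The E-score, a modified Wilcoxon-Mann-Whitney statistic, was computed by the Universal PBM Analysis Suite for every ungapped eight-base word pooled with its reverse complement. Scans behind it were normalised with masliner after bound GST-tagged yeast transcription factors were detected with fluorescent anti-GST. The proteins, at about 100-200 nM, had been applied to universal all-10-mer Agilent arrays made double-stranded by primer extension.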

| Sequence | PBM E-score |
| --- | --- |
| GAAAGTTC | -0.101 |
| GATCGAAA | 0.0513 |
| AAGAGTTC | -0.025 |
| GAAGATTC | 0.185 |
| CTTTCGCC | 0.0247 |
| GAACACTC | -0.0718 |
| ACAACGCT | -0.0795 |
| AGTAGGTA | 0.0649 |
| CCGCCTAA | -0.106 |
| GCTGCCGA | -0.135 |
| GTACTCTA | -0.15 |
| AGACAAGA | 0.06 |
| TAACACAA | -0.0978 |
| CGGTAGAC | -0.18 |
| AATTGCGA | -0.116 |
| AACGTCCT | -0.0408 |
| AATATCAA | 0.0238 |
| AGCTTGGA | -0.248 |
| ACAGGTCC | -0.145 |
| CTCGAGCC | -0.232 |
| AAGAACGC | -0.0765 |
| ATTGGTTG | -0.047 |
| CTGTAATA | 0.111 |
| ATAAAAAT | 0.185 |
| CCCGGGGA | -0.243 |

| Sequence | PBM E-score |
| --- | --- |
| AGATCTTC | 0.0666 |
| ATTGCTGA | 0.13 |
| GATAGAAC | 0.0502 |
| ATCCGGAC | -0.213 |
| CCGGCCAG | -0.113 |
| CCCCATTA | -0.234 |
| ATTTACAC | -0.0414 |
| GAATGTAC | 0.113 |
| ATTAGGAA | 0.0922 |
| AACGTTAA | 0.181 |
| AGCGGACT | -0.23 |
| CGGCTAAC | 0.107 |
| GATTTCCC | 0.0305 |
| GGATCAAC | -0.0123 |
| CAATGTAC | -0.0545 |
| ATACTAGC | 0.041 |
| GATGACTA | 0.169 |
| ATAATATG | 0.262 |
| CCCCTGTC | -0.15 |
| CCGTTTTC | 0.00719 |
| AACTCCCA | -0.164 |
| ACACCTTG | -0.126 |
| AGGCCTAA | 0.0287 |
| GATCCCTA | 0.0759 |
| GTCGGTGA | 0.114 |

| Sequence | PBM E-score |
| --- | --- |
| CACGAAAA | 0.31 |
| ACCTTGTA | 0.0842 |
| AAGCTGCC | -0.0332 |
| AATCCTCA | 0.0253 |
| CAAAACTA | 0.108 |
| GACGCACC | -0.0524 |
| GGATCGAA | -0.0225 |
| AAATAGCG | 0.0639 |
| CAACCGTA | 0.181 |
| CGCTATCA | 0.0401 |
| ACGCTGCA | -0.159 |
| CCGAGAAC | 0.014 |
| AACCTCTT | 0.00815 |
| AACGCTAC | -0.172 |
| GCAAATCA | 0.141 |
| ATATCGTC | 0.336 |
| AAGCTCAT | -0.0172 |
| CCTCACCC | -0.106 |
| GCTCTCAC | -0.204 |
| AGGATCCA | -0.215 |
| CGCCTGCC | -0.128 |
| GCTACCGA | -0.0534 |
| AAGTCCGC | -0.214 |
| CTCCGCTA | -0.182 |
| ACAGAACG | 0.12 |

| Sequence | PBM E-score |
| --- | --- |
| AGGTCCGG | -0.233 |
| AACAATGC | 0.0685 |
| CAGAGGCC | -0.259 |
| CACTGCGG | -0.201 |
| TCTCCACA | -0.037 |
| GCGCACGA | 0.0514 |
| GGATATCA | 0.247 |
| GTATGGAC | 0.143 |
| ACGAGATA | 0.221 |
| GAAAATCC | 0.0503 |
| AAGGACCC | -0.134 |
| AAGACCCT | -0.235 |
| CCGTAATC | 0.218 |
| CACTTGGC | -0.195 |
| AACTCCCC | -0.128 |
| TCTACTCA | 0.0326 |
| CCTATTCA | -0.0192 |
| CCTTAGAG | -0.149 |
| CCGTCGTA | 0.282 |
| GAGAGGAC | -0.077 |
| CCTCAGCA | 0.0358 |
| CGAACTCG | 0.101 |
| AGGCGATG | -0.0382 |
| ACTCGCAG | -0.0529 |
| GAACTGTC | 0.0782 |

| Sequence | PBM E-score |
| --- | --- |
| TTATAAAA | 0.151 |
| GTCTATTA | -0.0181 |
| CTTTAGAC | 0.0745 |
| AATTCCCC | -0.0902 |
| CGTGGTTC | 0.0193 |
| CACCCGTG | -0.0574 |
| CTAGGAAG | -0.18 |
| TCCTGTCA | 0.0703 |
| AAGTACAT | 0.15 |
| GGAATGAA | -0.116 |
| TCAGTAGA | -0.0357 |
| ACTGCCCC | -0.176 |
| AAGTTCGC | -0.00117 |
| ATAAATAG | 0.104 |
| CTGCAGAC | -0.162 |
| GCATTATA | 0.0562 |
| AGGCCTAG | -0.0501 |
| AACCCTAT | -0.117 |
| AGTTCAAA | 0.0194 |
| CAGAATAA | 0.00085 |
| GCTCAATA | 0.127 |
| CCAGATAC | -0.082 |
| GGTGCGAC | 0.0192 |
| CAATCTAC | -0.0654 |
| CGTCTAAA | 0.153 |

| Sequence | PBM E-score |
| --- | --- |
| CCGGCATA | 0.0154 |
| CTGAGTAC | -0.265 |
| GCTCGGCA | -0.0163 |
| CAACAACG | 0.158 |
| CCTTTAGA | -0.115 |
| CCGATAGA | -0.047 |
| ACGGTATC | 0.182 |
| ATCGTGAA | 0.165 |
| CAGTAAAA | 0.0609 |
| CTAATGAC | 0.0613 |
| CCAGAAAA | 0.00653 |
| CCGTGGTA | 0.072 |
| AACGGCCC | -0.137 |
| CATCATAA | 0.136 |
| CGCAATGA | 0.105 |
| ATCAGTAA | 0.134 |
| GGTCGACC | 0.12 |
| CTTCTTCA | -0.00012 |
| GCAATAGC | -0.202 |
| GCAAAATA | 0.101 |
| CATGCCCG | 0.0779 |
| ATGCGTCG | 0.147 |
| TAAGAATA | 0.0017 |
| AATGATAT | 0.436 |
| GTGCCTAA | -0.0654 |

An excerpt from the list above:

| Sequence | PBM E-score |
| --- | --- |
| CCGGCATA | 0.0154 |
| CTGAGTAC | -0.265 |
| GCTCGGCA | -0.0163 |

Look-ups from the entries so far:
Value for GCTCGGCA under PBM E-score: -0.0163
Value for TAAGAATA under PBM E-score: 0.0017
Value for ATCGTGAA under PBM E-score: 0.165
Value for AATGATAT under PBM E-score: 0.436

Next part

| Sequence | PBM E-score |
| --- | --- |
| GACGGCTA | 0.0813 |
| AGGGACAT | 0.0319 |
| ACAGAGTG | 0.0326 |
| AGAATAAA | 0.0955 |
| AGCGACCG | 0.0741 |
| CAACAGGG | -0.245 |
| AACGGCGG | 0.176 |
| CCGTACGG | 0.29 |
| AAAGTATA | 0.101 |
| ACAGTGGG | -0.169 |
| ATAACGAA | 0.268 |
| CTTGTTCA | -0.0789 |
| CAAGCACA | -0.164 |
| AATAATTG | 0.169 |
| CAAGGTTA | 0.0302 |
| ACCTCCGC | 0.0265 |
| CAGACCAA | -0.132 |
| TGCCAGCA | -0.0616 |
| GTCGTGAA | 0.279 |
| GCGGTACC | -0.116 |
| GAGATCAC | 0.347 |
| AGAAGTAC | -0.192 |
